Data taken from publication PMC4365484.
No constants are given. Whether binding was seen depends on the method and setting. In cells and extracts the contact can be indirect. A yes stands for co-enrichment or nearness to the bait. Other partners may have been found. For part of these data: No binding means not detected with the bait. Blank lines part the entries; values can stand above or below the binder they belong to.

The chains behind the UniProt entries cited, without tags or fusion partners.
UniProt Q15691: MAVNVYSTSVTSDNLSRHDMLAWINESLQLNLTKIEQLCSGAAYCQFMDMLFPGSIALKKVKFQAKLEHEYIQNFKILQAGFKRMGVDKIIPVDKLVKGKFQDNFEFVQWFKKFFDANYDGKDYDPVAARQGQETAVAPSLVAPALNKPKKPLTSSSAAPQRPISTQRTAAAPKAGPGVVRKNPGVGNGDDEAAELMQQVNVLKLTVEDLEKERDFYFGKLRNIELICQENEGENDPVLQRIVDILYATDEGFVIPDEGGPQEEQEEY

Columns and labels:
[1] = target: Flag-tagged EB1 (human) (UniProt Q15691); assay: condition: only anaphase cells (released from DMA for 45 min); affinity purification with mass spectrometry; as the large-scale anti-Flag immunoprecipitation of Flag-EB1, from anaphase cells only (released from DMA for 45 min)
[2] = target: Flag-tagged EB1 (human) (UniProt Q15691); assay: affinity purification with mass spectrometry; large-scale anti-Flag immunoprecipitation of Flag-EB1 from UTA6 mitotic cell lysates (DMA-arrested prometaphase cells; DMA-released anaphase cells), 3xFlag peptide elution, LC-MS-MS/MS; hits found at least twice with at least two peptides and not in Flag-Nuf2 immunoprecipitates

binding [1]: no binding
binding [2]: binds
B1: Kif18b (KIF18B), plus-end tracking kinesin (protein, UniProt Q86Y91 1-852)
chain: MAVEDSTLQVVVRVRPPTPRELDSQRRPVVQVVDERVLVFNPEEPDGGFPGLKWGGTHDGPKKKGKDLTFVFDRVFGEAATQQDVFQHTTHSVLDSFLQGYNCSVFAYGATGAGKTHTMLGREGDPGIMYLTTVELYRRLEARQQEKHFEVLISYQEVYNEQIHDLLEPKGPLAIREDPDKGVVVQGLSFHQPASAEQLLEILTRGNRNRTQHPTDANATSSRSHAIFQIFVKQQDRVPGLTQAVQVAKMSLIDLAGSERASSTHAKGERLREGANINRSLLALINVLNALADAKGRKTHVPYRDSKLTRLLKDSLGGNCRTVMIAAISPSSLTYEDTYNTLKYADRAKEIRLSLKSNVTSLDCHISQYATICQQLQAEVAALRKKLQVYEGGGQPPPQDLPGSPKSGPPPEHQPCTPELPAGPRALQEESLGMEAQVERAMEGNSSDQEQSPEDEDEGPAEEVPTQMPEQNPTHALPESPRLTLQPKPVVGHFSARELDGDRSKQLALKVLCVAQRQYSLLQAANLLTPDMITEFETLQQLVQEEKIEPGAEALRTSGLARGAPLAQELCSESIPVPSPLCPEPPGYTGPVTRTMARRLSGPLHTLGIPPGPNCTPAQGSRWPMEKKRRRPSALEADSPMAPKRGTKRQRQSFLPCLRRGSLPDTQPSQGPSTPKGERASSPCHSPRVCPATVIKSRVPLGPSAMQNCSTPLALPTRDLNATFDLSEEPPSKPSFHECIGWDKIPQELSRLDQPFIPRAPVPLFTMKGPKPTSSLPGTSACKKKRVASSSVSHGRSRIARLPSSTLKRPAGPLVLPELPLSPLCPSNRRNGKDLIRVGRALSAGNGVTKVS

binding [2]: binds
B2: CLASP2 (protein, UniProt O75122 1-1294)
chain: MAMGDDKSFDDEESVDGNRPSSAASAFKVPAPKTSGNPANSARKPGSAGGPKVGGASKEGGAGAVDEDDFIKAFTDVPSIQIYSSRELEETLNKIREILSDDKHDWDQRANALKKIRSLLVAGAAQYDCFFQHLRLLDGALKLSAKDLRSQVVREACITVAHLSTVLGNKFDHGAEAIVPTLFNLVPNSAKVMATSGCAAIRFIIRHTHVPRLIPLITSNCTSKSVPVRRRSFEFLDLLLQEWQTHSLERHAAVLVETIKKGIHDADAEARVEARKTYMGLRNHFPGEAETLYNSLEPSYQKSLQTYLKSSGSVASLPQSDRSSSSSQESLNRPFSSKWSTANPSTVAGRVSAGSSKASSLPGSLQRSRSDIDVNAAAGAKAHHAAGQSVRSGRLGAGALNAGSYASLEDTSDKLDGTASEDGRVRAKLSAPLAGMGNAKADSRGRSRTKMVSQSQPGSRSGSPGRVLTTTALSTVSSGVQRVLVNSASAQKRSKIPRSQGCSREASPSRLSVARSSRIPRPSVSQGCSREASRESSRDTSPVRSFQPLASRHHSRSTGALYAPEVYGASGPGYGISQSSRLSSSVSAMRVLNTGSDVEEAVADALKKPARRRYESYGMHSDDDANSDASSACSERSYSSRNGSIPTYMRQTEDVAEVLNRCASSNWSERKEGLLGLQNLLKNQRTLSRVELKRLCEIFTRMFADPHGKRVFSMFLETLVDFIQVHKDDLQDWLFVLLTQLLKKMGADLLGSVQAKVQKALDVTRESFPNDLQFNILMRFTVDQTQTPSLKVKVAILKYIETLAKQMDPGDFINSSETRLAVSRVITWTTEPKSSDVRKAAQSVLISLFELNTPEFTMLLGALPKTFQDGATKLLHNHLRNTGNGTQSSMGSPLTRPTPRSPANWSSPLTSPTNTSQNTLSPSAFDYDTENMNSEDIYSSLRGVTEAIQNFSFRSQEDMNEPLKRDSKKDDGDSMCGGPGMSDPRAGGDATDSSQTALDNKASLLHSMPTHSSPRSRDYNPYNYSDSISPFNKSALKEAMFDDDADQFPDDLSLDHSDLVAELLKELSNHNERVEERKIALYELMKLTQEESFSVWDEHFKTILLLLLETLGDKEPTIRALALKVLREILRHQPARFKNYAELTVMKTLEAHKDPHKEVVRSAEEAASVLATSISPEQCIKVLCPIIQTADYPINLAAIKMQTKVIERVSKETLNLLLPEIMPGLIQGYDNSESSVRKACVFCLVAVHAVIGDELKPHLSQLTGSKMKLLNLYIKRAQTGSGGADPTTDVSGQS
